Reference: publication PMC7239026
Results are given in words; binding and its absence hold for the method and conditions named. Where a sequence is shown, tags or fusion partners need not be part of it.

Chains of the proteins cited; added tags and fusions are not shown. Lines headed by an entry give the natural chain unless they say otherwise; changes in a name come on top.
UniProt P02452: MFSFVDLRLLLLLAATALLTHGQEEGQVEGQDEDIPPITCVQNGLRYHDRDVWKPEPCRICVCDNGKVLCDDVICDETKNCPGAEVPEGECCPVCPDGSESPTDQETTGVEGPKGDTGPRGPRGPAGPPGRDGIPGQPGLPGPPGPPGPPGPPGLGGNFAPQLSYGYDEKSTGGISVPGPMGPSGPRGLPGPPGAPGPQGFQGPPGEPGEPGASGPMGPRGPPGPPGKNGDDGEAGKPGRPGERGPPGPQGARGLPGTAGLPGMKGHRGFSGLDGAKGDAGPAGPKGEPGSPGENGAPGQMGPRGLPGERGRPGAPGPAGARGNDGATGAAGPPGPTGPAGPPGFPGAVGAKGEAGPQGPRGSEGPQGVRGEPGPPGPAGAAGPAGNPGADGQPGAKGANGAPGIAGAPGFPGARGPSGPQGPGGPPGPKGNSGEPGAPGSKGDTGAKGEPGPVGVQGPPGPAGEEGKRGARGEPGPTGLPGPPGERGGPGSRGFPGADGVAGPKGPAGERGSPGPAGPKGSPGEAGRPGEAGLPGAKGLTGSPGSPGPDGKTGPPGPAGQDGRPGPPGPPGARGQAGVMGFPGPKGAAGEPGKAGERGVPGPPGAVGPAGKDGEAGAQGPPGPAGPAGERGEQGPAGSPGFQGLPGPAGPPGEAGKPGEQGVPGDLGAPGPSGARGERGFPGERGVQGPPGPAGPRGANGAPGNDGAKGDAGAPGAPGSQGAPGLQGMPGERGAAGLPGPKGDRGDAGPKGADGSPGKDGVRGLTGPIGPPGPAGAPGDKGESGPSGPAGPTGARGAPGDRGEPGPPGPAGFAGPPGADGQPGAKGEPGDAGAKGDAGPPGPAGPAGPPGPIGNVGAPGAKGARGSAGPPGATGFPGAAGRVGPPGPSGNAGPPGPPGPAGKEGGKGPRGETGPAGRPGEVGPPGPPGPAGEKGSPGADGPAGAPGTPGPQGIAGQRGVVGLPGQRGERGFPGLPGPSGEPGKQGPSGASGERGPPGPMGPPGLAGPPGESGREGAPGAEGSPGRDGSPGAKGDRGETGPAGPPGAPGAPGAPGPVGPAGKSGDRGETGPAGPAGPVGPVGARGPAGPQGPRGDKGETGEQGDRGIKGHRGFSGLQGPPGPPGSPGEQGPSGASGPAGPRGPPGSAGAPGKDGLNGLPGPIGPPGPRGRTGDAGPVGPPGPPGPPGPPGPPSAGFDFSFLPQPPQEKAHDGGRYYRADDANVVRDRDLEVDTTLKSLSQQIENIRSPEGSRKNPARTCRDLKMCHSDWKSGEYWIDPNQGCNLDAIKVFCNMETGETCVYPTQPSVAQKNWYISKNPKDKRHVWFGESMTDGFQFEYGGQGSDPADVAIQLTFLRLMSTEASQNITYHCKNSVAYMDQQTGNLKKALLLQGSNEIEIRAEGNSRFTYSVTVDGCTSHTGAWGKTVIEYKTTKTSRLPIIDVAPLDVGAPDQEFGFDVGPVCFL

Target: human type I collagen (human) (UniProt P02452)
Experiment: ELISA; human glycoproteins coated on 96-well plates (5 ug/mL in 75 mM sodium carbonate buffer pH 9.6, 18 h at 4°C); blocked with 3% fish gelatin; rPepO (10 to 50 ug/mL) or rCnmA (0.125 to 2 ug/mL) in 50 mM HEPES pH 7.4, 150 mM NaCl, 2 mM CaCl2, 50 ug/mL BSA, 2 h at 37°C; bound protein detected with rabbit antiserum and peroxidase conjugate, A450 nm; wells with 1% BSA as control; both purified

B1: His-tagged PepO recombinant protein (rPepO), endopeptidase O of Streptococcus mutans (protein, UniProt I6L8Y4 1-631)
chain: MVRLQDDFYNAVNGQWEEAAVIPDDKPRTGGFSDLADDIEDLMLETTDKWLDGKDVPDDSILQNFVKFHRQVADYDAREETGVKPVLPLIEEYKSLTSFADFASNIATYEMAGKPNELPFGVAPDFMNAQMNVLWAEAPNLILPDTTYYAEGNDKGKELLAKWRTMQEELLPKFGFEEAEIKDLLDKVLTLDAKLAQYVLSSEESSEYVKLYHPYDWADFTKLTPELPLDAIFTQILGQKPDKVIVPEERFWTNFAAEFYSEKNWPFLKATLVLAAASSYNSYLTDDIRILSGSYNRALSGTPQAMGKKKAAFYLAQGPYNQALGLWYAGEKFSPEAKKDVEAKVATMIEVYKERLHKTDWLAQETRNKAITKLNVITPHIGYPEQLPKTYAQKIIDDNLSLVENAQNLAKISIAYNWSKWNQPVDRSEWHMPAHMVNAYYDPQQNQIVFPAAILQAPFYSLEQSSSANYGGIGAVIAHEISHAFDTNGASFDENGSLNNWWTDEDYAAFKKRTDRVVEQFEGLDSYGAKVNGQLTVSENVADLGGLACALEAAKREADFSVRDFFINFATIWRMKARDEYMQMLASIDVHAPAKWRTNVTITNFDEFHQEFAVKEGDGMWRDEDKRVIIW
binding: no binding (tested: 10 to 50 µg/mL rPepO)
